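Assay of Toxoplasma gondii numbers, read through their beta-galactosidase reporter with a colour substrate. Concentration: 50 µM. Higher reads as fewer parasites (inferred from which compounds were picked for retests). Of about 18,000 compounds tested this way, about 170 (0.94%) reached 50% or more in at least one test.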

Values are the deposited “Percent Effect”, in %. The controls that fix the scale are not given in the record; negative values are as filed. This is an unselected part of the compounds tested.

structure,effect
COc1cccc(CN2CCC(N(C)C(C)=O)CC2)c1,6.849%
NCCOc1ccc2c(c1)OCO2,4.934%
CN(C)CCO[C@@H]1COCC[C@H]1NC(=O)C1CC=CC1,1.336%
O=C(CSCCO)Nc1ccccc1F,-2.162%
Cc1c[nH]c(C(=O)N2CCN3CCN(C)CC3C2)n1 (stereo not shown),11.31%
CCCS(=O)(=O)N(C)Cc1cccc(OCC)n1,-12.39%
CC(C)C(NC(=O)CCn1cccn1)c1cccnc1 (stereo not shown),1.393%
CN(C)[C@@H]1CN(Cc2ccccc2C#N)CC[C@@H]1CO,8.034%
NC1CCN(C(=O)C2(c3cccc(F)c3)CC2)CC1,89.65%
NC(=O)C1CCN(C(=O)C2CCNCC2)CC1,12.65%
COC(=O)c1cc(N2C(=O)C=CC2=O)ccc1Cl,3.299%
FC(F)(F)CCOC1CCNCC1,-5.148%
CC(=O)NCc1cn2ccsc2n1,-6.776%
COCC(=O)NCCc1ccccc1F,24.54%
NCC1CC12CCS(=O)(=O)CC2 (stereo not shown),-8.119%
N#CCCN1CCC(NS(=O)(=O)c2ccccc2)CC1,-20.71%
CC1Oc2c(cccc2C(=O)N2CCC2(C)C)NC1=O (stereo not shown),3.533%
COc1ccc(CN(C)S(C)(=O)=O)cc1C,-4.936%
COc1ccccc1S(=O)(=O)N1C[C@H](C(C)C)[C@@H](N)C1,27.15%
CN(C)C1(CNC(=O)c2ccncc2)CCCC1,2.043%
CN(C)C(=O)CCN1CCCC1c1ccsc1 (stereo not shown),9.246%
Cc1cc(C)nc(SCC(=O)Nc2ccn(C)n2)n1,-2.002%
NC1CCS(=O)(=O)c2ccc(Br)cc21 (stereo not shown),2.925%
Cc1ccc(C(C)NC(=O)Cn2ccccc2=O)o1 (stereo not shown),-2.13%
CCN(C)S(=O)(=O)N1CCC[C@H]1CO,2.469%
COCCc1noc(C2CCN(CC(N)=O)CC2)n1,1.681%
CCOC(=O)CSc1n[nH]c(-c2cccnc2)n1,-9.667%
Cc1cc(=O)cc(C(=O)N2CCCC(C)(C#N)C2)o1 (stereo not shown),-4.729%
Cc1ccc(-n2cc(C)cn2)c(NC(=O)CN(C)C)c1,-5.305%
CN(CCN1CCCC1)C(=O)Nc1cccc(C#N)c1,8.511%
CCCN1CCC(NCc2ncccc2F)CC1,-17.31%
COCCNCCNC(=O)c1ccc2c(c1)nnn2C,5.895%
c1cncc(CNCc2ccc3c(c2)OCCCO3)c1,-4.421%
CC(C)CNC(=O)c1cc(F)cc(F)c1,-25.65%
Cc1cncc(C(=O)NCCc2cncn2C)c1,-5.142%
CNc1snc(C)c1C(=O)N1CCC2(CC1)OCCO2,2.629%
CCSCC(=O)NCCCc1csc(N)n1,-3.745%
CCc1ccc(C(=O)NC2(C(=O)NC)CCCCC2)o1,-2.206%
CC(C)COC1CCN(S(=O)(=O)N2CCCC2)CC1,99.18%
CN(C)C(=O)C1CCCNC1 (stereo not shown),5.05%
CCCn1ccnc1CNC(=O)C(O)CCSC (stereo not shown),17.7%
Cc1cc(C)n(-c2ccc(CNC(=O)C(C)N)cn2)n1 (stereo not shown),1.934%
NCC1(CO)COC1,0.7777%
CN(CC(N)=O)CC1CN(Cc2ccccc2)CCO1 (stereo not shown),-35.95%
CN(C(=O)NC1CCN(C2CC2)CC1)C1CC1,1.159%
CC(c1ccccn1)N1CCN(CCCC#N)CC1 (stereo not shown),19.59%
CCCN(CCO)CC(=O)NC(CC)CC,-0.6749%
CS(=O)(=O)c1ccncc1N,-2.358%
COCCCC(=O)NC1CCc2nccn2C1 (stereo not shown),5.1%
COCCN(C)CCN1CC2(CCN(C)CC2)OC1=O,-17.9%
Cc1cc(N)n(CC(=O)N2CCN(C)C(=O)C2C)n1 (stereo not shown),-5.183%
CO[C@@H]1CN[C@@H](C(=O)Nc2nc(-c3cccs3)ns2)C1,-7.397%
CN1C(=O)CC(NC(=O)Nc2ccc(F)cn2)C1=O (stereo not shown),4.53%
NC(=O)CN(CCCO)Cc1ccccc1,-1.308%
CN(C(=O)c1n[nH]c2ccccc12)[C@H]1COC[C@@H]1O,-14.04%
CCN1CCN(CC(C)CNc2ncccc2Cl)CC1 (stereo not shown),-5.152%
C1CC(C2CCN(C3CNC3)CC2)CN1 (stereo not shown),-5.788%
CN(C)C(=O)C1CCCN1CCCN (stereo not shown),-2.848%
Cc1n[nH]cc1CNCCN1CCCCCC1=O,0.318%
Cc1cc(C(=O)NCCOc2ncccc2Cl)[nH]n1,1.663%
CNC(=O)CN1CCN(Cc2cncn2C(C)C)CC1,16.72%
CN1CCCC(N2C(=O)c3ccccc3C2=O)C1=O (stereo not shown),7.25%
CN1CC[C@H]2CN(C(=O)CCOc3ccccc3)C[C@H]21,-2.182%
N#Cc1ccnc(OC(F)F)c1,-2.909%
O=C(CCC1CCCCC1)N1CCNCC1,7.315%
Nc1n[nH]c(SCC(=O)N2CCc3sccc3C2)n1,-12.95%
COC1(CO)CCOC1 (stereo not shown),-5.193%
Cc1nc2c(o1)CCCC2O (stereo not shown),-0.6533%
CN1CCC(CNC(=O)Nc2ccccc2)C1 (stereo not shown),-4.381%
NCC(CO)Cc1cccc(F)c1 (stereo not shown),-3.622%
CC(C)OCCCNC(=O)c1ccc(S(N)(=O)=O)cc1,2.843%
CNC(=O)c1ccc(NC(=O)N(C)CCOC)cc1,-24.6%
Nc1[nH]nc(C(=O)N2CC(N3CCCCC3)C2)c1Cl,-3.495%
CO[C@@H]1CS(=O)(=O)[C@@H]2CNC[C@@H]21,-3.68%
Cc1nc2ncnn2c(N2CCOCC2)c1C,-1.379%
CCN(C(=O)NCc1nnc(C)n1C1CC1)C(C)C,-4.429%
COc1cc(F)c(C(=O)N2CCC(OC)C2)c(F)c1 (stereo not shown),-3.29%
CN(C(=O)C1CC12CCNCC2)C1CC1 (stereo not shown),0.5734%
CN1C(=O)C[C@@H](N)[C@@H]1c1ccc(Cl)c(Cl)c1,-1.948%
CC(=O)c1ccnc(C)n1,-2.879%
CCC[C@H]1CN(C(=O)CCn2ccnc2CC)C[C@@H]1N,-15.71%
Cc1ncsc1CCN,0.1752%
COC(=O)C(C)NC(=O)C1CCCCC1 (stereo not shown),1.003%

The values are deposited in ChEMBL (CHEMBL3988442, “University of Dundee, Small-Polar-MMV Screening Library” (2021)).